These results are taken from PubChem BioAssay AID2685 (National Center for Advancing Translational Sciences (NCATS), 2010).

Structures are written as SMILES. Some of the results follow. The main result of the screen is listed elsewhere. These columns were measured beside it and carry no call. The list favours compounds with an active or inconclusive main result. The note in brackets gives the kind of curve behind each potency; many fits are weak.

The assay can be described thus: qHTS Assay for Lipid Storage Modulators in Drosophila S3 Cells.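 For cell number change: cells counted by Cell Tracker Red CMTPX staining in the red channel.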 Conditions: BODIPY lipid droplet fluorescence, 18-24 h; for cell number change: measured here: cell count max response, cells fed with added oleic acid. The method, boiled down: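 Drosophila S3 cells loaded with oleic acid (400 uM, as added) and compounds at several concentrations; lipid droplets imaged by 488-nm laser-scanning cytometry, 500–530 nm intensity and object ratio to cell channel. Percent activity normalized to 20 uM Triacsin C.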

The mark [1] stands for this setting: measured here: cell number channel AC50, cells fed with added oleic acid.
The mark [2] stands for this setting: measured here: lipid fluorescence (Fed channel) AC50, cells fed with added oleic acid.

The term AC50 denotes the midpoint of the concentration-response curve, whichever way the signal moves. Low values mean greater potency, high ones weaker potency.

Take `O=C(NCCc1ccccc1)C1CCN(S(=O)(=O)c2cccc3nonc23)CC1`: the cell number change is -22.4%. In addition, under setting [1], the AC50 is 0.13 µM [falling, full curve, poor fit]. Moreover, the AC50 under setting [2] was 5.17 µM [falling, partial curve, poor fit]. For the compound `Cc1ccc(-c2ccc(/C=N\n3cnnc3)o2)c(Br)c1`, the cell number change came to 14.9%. Moreover, the AC50 under setting [1] is 0.326 µM [rising, full curve, poor fit].

As to `c1ccc(C(Cc2nc(-c3ccncc3)no2)c2ccccc2)cc1`, the cell number change came out at 34%. The AC50 under setting [1] is 14.6 µM [rising, single point]. For the compound `COc1cc(N)c(Cl)cc1C(=O)OCC(=O)c1cccs1`, the cell number change is -6.58%. Further, the AC50 under setting [2] was 5.62 µM [rising, single point]. With `COc1cc(NC(=O)C2=C(N3CCOCC3)/C(=C\c3ccc(Cl)cc3Cl)CC2)cc(OC)c1OC`, the cell number change worked out at 8.7%. Further, the AC50 under setting [2] was 0.461 µM [rising, partial curve].

As for `O=C(CN1C(=O)c2ccccc2C1=O)Nc1ccccc1C(F)(F)F`, the cell number change worked out at 53.5%. The AC50 under setting [1] was 23.1 µM [rising, single point]. Regarding `S=C(NC1CCCCC1)N1CCN(c2ccccn2)CC1`, the cell number change is 8.25%. Also, the AC50 under setting [2] is 6.51 µM [falling, single point]. Turning to `Cn1cccc1C(=O)OCC(=O)N1CC(=O)Nc2ccccc21`, the cell number change was found to be 3.54%. Regarding `Cc1ccc(S(=O)(=O)N2CCC(=O)N(CCOCc3cccc(F)c3)CC2)cc1`, the cell number change turned out to be 13.2%. For the same compound, under setting [2], the half-maximal activity concentration (AC50) is 0.461 µM [rising, full curve, poor fit]. Turning to `Cc1cc(C)cc(NC(=O)CN2C(=O)NC(C)(c3ccccc3)C2=O)c1` (configuration not stated), the cell number change worked out at 39.3%. Under setting [2], the AC50 is 29.1 µM [rising, single point].

As for `COc1ccc(C(=O)Nc2nnc(-c3ccccc3)s2)cc1`, the cell number change was 7.97%. Besides, the AC50 under setting [2] is 29.1 µM [rising, single point]. As for `CCOC(=O)c1cn[nH]c1N`, the cell number change was 17.8%. For the same compound, the AC50 under setting [2] is 29.1 µM [rising, partial curve, poor fit]. With `CC(C)CCNC(=O)c1c[nH]c2ccc(S(=O)(=O)N3CCOCC3)cc2c1=O`, the cell number change is -16.5%. In addition, the AC50 under setting [2] is 20.6 µM [falling, single point]. Regarding `CCCCOC(=O)c1ccc(NC(=O)c2cc(Cl)ccc2OC)cc1`, the AC50 under setting [2] was 29.1 µM [rising, single point]. Consider `CCOc1ccc(N(CC(=O)NCCSCc2ccc(Cl)cc2)S(C)(=O)=O)cc1`, for which the AC50 under setting [2] is 14.6 µM [falling, partial curve].

Consider `COC(=O)Cc1cc(OC)c(OC)cc1Cc1cc(OC)c(OC)cc1CC(=O)OC`, for which the concentration at half-maximal activity (AC50) under setting [2] was 0.00517 µM [falling, full curve, poor fit]. Regarding `CCCCCOC(=O)Nc1ccc(S(=O)(=O)Nn2cnnc2)cc1`, the cell number change was -20.2%. Besides, the AC50 under setting [2] is 0.517 µM [falling, full curve].

As for `Cc1nnc(Sc2cc(NCCCO)c([N+](=O)[O-])c3nonc23)s1`, the cell number change is -129%. Further, the AC50 under setting [1] was 29.1 µM [falling, partial curve, poor fit]. Besides, the concentration at half-maximal activity (AC50) under setting [2] was 29.1 µM [falling, single point]. For the compound `COC(=O)COc1ccc(S(=O)(=O)NCc2ccccn2)cc1`, the cell number change amounted to 3.04%. Under setting [2], the half-maximal activity concentration (AC50) was 3.66 µM [rising, full curve]. As for `CN(Cc1ccncc1)C1CC(=O)N(c2ccc(F)cc2)C1=O` (configuration not stated), the cell number change is -40.8%. Moreover, the AC50 under setting [1] was 29.1 µM [falling, single point]. As for `Cc1ccc(CSc2nc3c(c(=O)[nH]2)CCC3)cc1`, under setting [1], the concentration at half-maximal activity (AC50) is 2.31 µM [falling, partial curve].

For `COc1cc(NC(=O)CCNC(=O)Cn2cnc3ccccc3c2=O)cc(OC)c1OC`, the cell number change is -21.4%. The AC50 under setting [1] was 3.66 µM [falling, full curve, poor fit]. Further, the concentration at half-maximal activity (AC50) under setting [2] was 20.6 µM [falling, partial curve]. As for `CCCOc1cc(C)c(S(=O)(=O)NC2CC(C)(C)NC(C)(C)C2)cc1C`, the cell number change is -10.3%. Besides, the AC50 under setting [2] is 0.00517 µM [falling, full curve, poor fit]. `O=C(c1ccc(CNS(=O)(=O)c2ccc(Br)cc2)cc1)N1CCCCCC1`: the cell number change is -17.7%. Also, the AC50 under setting [2] was 16.4 µM [falling, single point]. On to `NC(=O)Cn1cnc2nc3n(c2c1=O)CCC3`, for which the cell number change is -28.5%. Also, under setting [1], the AC50 is 0.731 µM [falling, full curve, poor fit].

Turning to `CCN(CC)CCn1c2c(c(SCC(=O)Nc3nc(C)cs3)nc1=O)CCCC2`, the AC50 was 6.51 µM [rising, partial curve] under setting [1] and 16.4 µM [falling, single point] under setting [2]. Regarding `CCc1c(C)nc2ccc(Br)cc2c1Cl`, the cell number change was -18.2%. With `Cc1nc(-c2cccc(NC(=O)c3ccc(-n4nccc4C)cc3)c2)cs1`, the cell number change was 1.94%. Under setting [1], the AC50 is 6.51 µM [rising, single point]. On to `Cc1ccnn1CCC(=O)N1CCCC(N2CCN(c3cccc(Cl)c3)CC2)C1` (configuration not stated), for which the cell number change was found to be 3.97%. Besides, under setting [1], the AC50 was 6.51 µM [rising, single point]. `NC(=O)C1CCCN(C(=O)CNC(=O)C23CC4CC(CC(C4)C2)C3)C1` (configuration not stated): the cell number change was -0.942%. The AC50 under setting [2] is 29.1 µM [falling, single point].

Consider `CC(=O)NS(=O)(=O)c1ccc2c(c1)Cc1cc(S(=O)(=O)NC(C)=O)ccc1-2`, for which the cell number change was -27.4%. `COc1cc(OC)cc(C(=O)N2CCN(c3ccccc3F)CC2)c1`: the cell number change came to 1.18%. The AC50 under setting [2] was 0.0082 µM [rising, full curve, poor fit].

For the compound `CCOC(=O)c1c(-c2cccs2)csc1NC(=O)CSc1ncn[nH]1`, the cell number change turned out to be 94.6%. As for `Cc1cc(N2CCOCC2)nc2ccc(NC(=S)NCCC(C)C)cc12`, the cell number change was -6.94%. Moreover, the AC50 under setting [1] was 0.82 µM [rising, partial curve, poor fit].

Turning to `CCOC(=O)c1ccc(N=Cc2nc(-c3ccccc3)oc2OC(C)=O)cc1`, the cell number change was 61.2%. Moreover, the AC50 under setting [1] is 20.6 µM [rising, single point]. Turning to `Cc1cccc(NC(=O)NC(=S)NC(=O)c2ccccc2)c1`, the AC50 under setting [2] was 29.1 µM [rising, single point]. With `CNS(=O)(=O)c1cc(NC(=O)c2cccc3cccnc23)ccc1C`, the cell number change was -6.3%. As to `NC(=O)C1(N2CCCCC2)CCN(C(=O)c2cccs2)CC1`, the cell number change was -36.7%. Moreover, the AC50 under setting [1] is 0.184 µM [falling, full curve]. For the same compound, under setting [2], the AC50 is 2.06 µM [falling, full curve]. On to `O=C(O)c1ccccc1-c1ccccc1C(=O)NCc1cccnc1`, for which the cell number change came out at 7.69%. In addition, the AC50 under setting [2] was 6.51 µM [falling, single point].
